Assay results taken from paper PMC4207637.
Results are given in words; binding and its absence hold for the method and conditions named. In cells and extracts the contact can be indirect. Some entries that bind do so weakly or less than the wild type.

Amino acid sequences for entries named in this document (tags omitted).
UniProt O95832: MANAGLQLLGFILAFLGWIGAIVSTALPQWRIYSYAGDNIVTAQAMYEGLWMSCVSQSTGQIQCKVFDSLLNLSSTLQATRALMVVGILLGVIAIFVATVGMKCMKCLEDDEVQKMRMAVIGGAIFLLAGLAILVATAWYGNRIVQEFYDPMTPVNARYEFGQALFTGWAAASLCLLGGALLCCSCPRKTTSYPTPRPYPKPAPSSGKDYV
UniProt Q01546: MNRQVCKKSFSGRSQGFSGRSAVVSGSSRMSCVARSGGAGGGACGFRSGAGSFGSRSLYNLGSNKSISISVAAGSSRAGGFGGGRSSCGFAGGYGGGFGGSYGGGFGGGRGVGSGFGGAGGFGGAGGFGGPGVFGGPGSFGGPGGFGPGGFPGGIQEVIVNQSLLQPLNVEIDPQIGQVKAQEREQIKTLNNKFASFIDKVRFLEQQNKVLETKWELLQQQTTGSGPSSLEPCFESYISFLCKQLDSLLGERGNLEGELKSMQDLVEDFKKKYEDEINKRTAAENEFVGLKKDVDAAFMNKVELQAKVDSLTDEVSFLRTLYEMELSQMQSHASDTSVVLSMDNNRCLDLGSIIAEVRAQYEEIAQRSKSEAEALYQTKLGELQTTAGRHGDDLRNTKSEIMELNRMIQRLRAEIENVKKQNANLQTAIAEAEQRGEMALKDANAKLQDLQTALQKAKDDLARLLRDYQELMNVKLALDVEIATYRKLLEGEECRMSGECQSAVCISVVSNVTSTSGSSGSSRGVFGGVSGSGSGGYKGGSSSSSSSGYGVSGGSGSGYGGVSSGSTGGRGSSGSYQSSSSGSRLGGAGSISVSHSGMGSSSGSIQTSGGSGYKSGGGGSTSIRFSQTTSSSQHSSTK

Target: Claudin1 (CLDN1), endogenous in A549 cells (human (endogenous in A549)) (UniProt O95832)
Assay: co-IP; soluble extract of confluent A549 cells (1% Triton X-100 in TBS, 2 hrs at 4°C); anti-CLDN1 or non-immune IgG on Pierce Crosslink IP columns; washed 3 times in lysis buffer; blotted for ZO-1, CLDN1 and KRT76

binding: binds
Substance: Keratin 76 (KRT76), endogenous in A549 cells (from UniProt Q01546 1-638)
